Reference: article PMC6745501, “Plant photoreceptors and their signaling components compete for COP1 binding via VP peptide motifs” (The EMBO Journal, 2019)

Test system: COP1 WD40 domain
Assay: Grating-coupled interferometry (GCI) binding kinetics versus the COP1 WD40 domain
Design: species or system Arabidopsis
Conditions: ligand COP1 (2000 pg/mm2), analyte in the absence of UV-B, highest concentration 2 μM, 1:1 binding model
Procedure: For CRY2 activation, proteins were diluted to their final assay concentrations (as indicated in the figure legends) in Eppendorf tubes and exposed to 10 min of fluorescent light on ice.
The Creoptix WAVE system (Creoptix AG), a label‐free surface biosensor, was used to perform GCI experiments. All experiments were performed on 2PCH or 4PCH WAVEchips (quasi‐planar polycarboxylate surface; Creoptix AG). After a borate buffer conditioning (100 mM sodium borate pH 9.0, 1 M NaCl; Xantec), COP1 (ligand) was immobilized on the chip surface using standard amine‐coupling: 7 min activation [1:1 mix of 400 mM N‐(3‐dimethylaminopropyl)‐N′‐ethylcarbodiimide hydrochloride and 100 mM N‐hydroxysuccinimide (both Xantec)], injection of COP1 (10 μg/ml) in 10 mM sodium acetate pH 5.0 (Sigma) until the desired density was reached, and final quenching with 1 M ethanolamine pH 8.0 for 7 min (Xantec). […] Blank injections were used for double referencing and a dimethyl sulfoxide (DMSO) calibration curve for bulk correction. Analysis and correction of the obtained data were performed using the Creoptix WAVEcontrol software (applied corrections: X and Y offset; DMSO calibration; double referencing), and a one‐to‐one binding model or a heterogenous ligand model with bulk correction was used to fit all experiments.

## UVR8: recombinant full-length Arabidopsis UV-B photoreceptor UVR8 expressed in insect cells
  Rmax, - UV-B: 9.196 pg/mm2
